Inconclusive means that the source gave no clear call. Such entries were picked first, then a sample of the others. A potency beside an inconclusive call is a rough fit, not a confirmed value. Calls of active or inactive are those of the source. How the source made its calls: active means hit-call score of the fitted dose curve at least 0.9, where 1 is the maximum; inconclusive means response in the unintended direction; inactive means score below 0.9.
Read-out: glucuronosyltransferase (UGT1A1), UGT1A1 (gene 54658)
Assay: CLD_UGT1A1_24hr: CellzDirect (CLD) Gene Expression Assay for glucuronosyltransferase (UGT1A1) at 24 hours (AID 2283696)
Protocol: CLD_24hr is a cell-based, multiplexed-readout assay that uses hepatocyte, a human liver primary cell, with measurements taken at 24 hours after chemical dosing in a 96-well plate.CLD_UGT1A1_24hr is one of 16 assay component(s) measured or calculated from the CLD_24hr assay. It is designed to make measurements of mRNA induction, a form of inducible reporter, as detected with chemiluminescence signals by Quantitative Nuclease Protection Assay (qNPA) technology.Data from the assay component CLD_UGT1A1_24hr was analyzed at the endpoint, CLD_UGT1A1_24hr, in the positive analysis fitting direction relative to DMSO as the negative control and baseline of activity. Using a type of inducible reporter, gain-of-signal activity can be used to understand changes in the reporter gene as they relate to the gene UGT1A1. Furthermore, this assay endpoint can be referred to as a primary readout. To generalize the intended target to other relatable targets, this assay endpoint is annotated to the transferase intended target family, where subfamily is glucuronosyltransferase.
Human hepatocyte cultures were treated daily for two consecutive days with fresh dosing solutions containing appropriate concentrations of the 320 ToxCast chemicals (chemical identities were blinded to CellzDirect and other ToxCast collaborators), vehicle control (0.2% DMSO), and positive control inducers as summarized in Table 1. Due to the large number of treatment groups and chemicals examined, the ToxCast chemicals were divided into two groups (spanning two independent cultures of hepatocytes from separate donor preparations (Hu778: ToxCast plates 1 and 2; Hu776: ToxCast plates 3 and 4). Each preparation of human hepatocyte cultures was treated with respective vehicle control, medium only control, set of six positive controls/reference chemicals for the five hepatic receptor pathways, and a subset of eight of the ToxCast chemicals (indoxacarb, pyrithiobac-sodium, norflurazon, cyhalofop-butyl, methomyl, thiram, acetochlor, and propiconazole). These replicate data, coupled with internal replicates designed within the blinded ToxCast chemical library, provided additional data to evaluate interindividual differences between hepatocyte preparations and their potential impact on chemical profiles.Cell morphology and integrity were evaluated using phase-contrast microscopy as an indicator of hepatocyte cell health (Tyson & Green, 1987). Cultures for each treatment group (i.e., media, vehicle [0.2% DMSO], positive control inducers [multiple concentrations], and the ToxCast chemicals [multiple concentrations]) were observed and cell morphology was assessed relative to vehicle control cultures at each harvest time point (0, 6, 24, or 48 h). […] Images were evaluated at the conclusion of the study to assess changes in cell integrity and account for the effects of chemical exposure on uncharacteristic changes in concentration-dependent gene expression profiles. The results from these determinations of apparent cytotoxicity were annotated (yes/no) alongside the corresponding qNPA data for reference.At the conclusion of each treatment period, hepatocyte cultures (96-well) were washed with 1 volume of HBSS, lysed by addition of 25 ul ArrayPlate lysis buffer (HTG, Tucson, AZ), and 70 ul/well of Denaturation Oil, denatured by incubation at 95C for 10 min, and frozen at approximately -70C until analysis by nuclease protection assay (qNPA) (Roberts et al., 2007). For qNPA analysis, cell lysates were thawed at 50C for approximately 30 min, qNPA probes were added, and samples were incubated at 95C for 10 min to begin the detection process by denaturing the target RNA, dissociating the duplexes and secondary structure hybridization. At the conclusion of the hybridization period, S1 nuclease reagent was added to each sample to digest all nonprotected nucleotides at 50C for 60-90 min. […]

SMILES | AC50 | outcome
COc1cc(OC)nc(NC(=O)NS(=O)(=O)c2ncccc2OCC(F)(F)F)n1 | inconclusive: 0.00841 µM | 
CON(C)C(=O)Nc1ccc(Cl)c(Cl)c1 | inconclusive: 20 µM | 
N#CC(CCc1ccc(Cl)cc1)(Cn1cncn1)c1ccccc1 (configuration not stated) | inconclusive: 37.7 µM | 
CCCN(CCOc1c(Cl)cc(Cl)cc1Cl)C(=O)n1ccnc1 | inconclusive: 20 µM | 
CCOP(=S)(Oc1cnc(C(C)(C)C)nc1)OC(C)C (configuration not stated) | active: 3.14 µM | 
O=[N+]([O-])c1cc(C(F)(F)F)c(Cl)c([N+](=O)[O-])c1Nc1ncc(C(F)(F)F)cc1Cl | inconclusive: 3.51 µM | 
CCc1nn(C)c(C(=O)NCc2ccc(C(C)(C)C)cc2)c1Cl | inconclusive: 1.89 µM | 
CN(C)C(=S)SSC(=S)N(C)C | inconclusive: 34.9 µM | 
N#Cc1nn(-c2c(Cl)cc(C(F)(F)F)cc2Cl)c(N)c1S(=O)C(F)(F)F (configuration not stated) |  | inactive
CS(=O)(=O)c1ccc(C(=O)C2C(=O)CCCC2=O)c([N+](=O)[O-])c1 | inconclusive: 20 µM | 
CC(C)OC(=O)Nc1cccc(Cl)c1 | active: 20 µM | 
Clc1nc(Cl)nc(Nc2ccccc2Cl)n1 | inconclusive: 20 µM | 
CC[C@H](C)[C@H]1O[C@]2(C=C[C@@H]1C)C[C@@H]1C[C@@H](C/C=C(\C)[C@@H](O[C@H]3C[C@H](OC)[C@@H](O[C@H]4C[C@H](OC)[C@@H](O)[C@H](C)O4)[C@H](C)O3)[C@@H](C)/C=C/C=C3\CO[C@@H]4[C@H](O)C(C)=C[C@@H](C(=O)O1)[C@]34O)O2 (tested in a mixture with another compound) | inconclusive: 20 µM | 
COP(N)(=O)SC (configuration not stated) | inconclusive: 0.0648 µM | 
CC1(C(=O)Nc2ccc(O)c(Cl)c2Cl)CCCCC1 |  | inactive
CC1(C)C(C(=O)OC(C#N)c2cccc(Oc3ccccc3)c2)C1(C)C (configuration not stated) | active: 5.68 µM | 

SMILES | AC50 | outcome
CC1(c2ccc(Oc3ccccc3)cc2)OC(=O)N(Nc2ccccc2)C1=O (configuration not stated) | inconclusive: 20 µM | 
Cn1c(-c2ccccc2)cc(-c2ccccc2)[n+]1C | inconclusive: 20 µM | 
CSC1=N[C@@](C)(c2ccccc2)C(=O)N1Nc1ccccc1 |  | inactive
O=C(Nc1ccccc1)Nc1cnns1 | inconclusive: 0.478 µM | 
[2H]C1([2H])[n+]2ccccc2-c2cccc[n+]2C1([2H])[2H] | inconclusive: 20 µM | 
Cc1cc(Cl)ccc1OCC(=O)O |  | inactive
CNC(=S)S | inconclusive: 20 µM | 
CCCSP(=O)(OCC)SCCC |  | inactive
CC(C)(C)C(O)C(Oc1ccc(Cl)cc1)n1cncn1 (configuration not stated) | active: 6.66 µM | 
O=C1C2CC=CCC2C(=O)N1SC(Cl)(Cl)Cl (configuration not stated) | inconclusive: 20 µM | 
CO/N=C(/C1=NOCCO1)c1ccccc1Oc1ncnc(Oc2ccccc2Cl)c1F | inconclusive: 20 µM | 
C=CCC1=C(C)C(OC(=O)C2C(C=C(C)C)C2(C)C)CC1=O (configuration not stated) | inconclusive: 0.000394 µM | 
COC(=O)NC(=S)Nc1ccccc1NC(=S)NC(=O)OC |  | inactive
COP(=S)(OC)SCn1nnc2ccccc2c1=O | active: 9.43 µM | 
COc1ccc(C(c2ccc(OC)cc2)C(Cl)(Cl)Cl)cc1 | active: 20 µM | 
N#Cc1c(Cl)c(Cl)c(Cl)c(C#N)c1Cl | inconclusive: 2 µM | 

Gathered by group: those above containing a nitro group on carbon.
SMILES | AC50 | outcome
O=[N+]([O-])c1cc(C(F)(F)F)c(Cl)c([N+](=O)[O-])c1Nc1ncc(C(F)(F)F)cc1Cl | inconclusive: 3.51 µM | 
CS(=O)(=O)c1ccc(C(=O)C2C(=O)CCCC2=O)c([N+](=O)[O-])c1 | inconclusive: 20 µM | 
